Counter-ions that a name gives are not always drawn. This is one part of the list. Single values are uncertain, as repeats are few or missing.
tested on: hsa-miR-132-3p; experiment: miR-132-3p level in NGN2-iNs after compound treatment (TMM-normalised, ComBat batch-corrected) (batch-corrected normalised expression (arbitrary units)); higher = higher miR-132-3p expression; settings: 10 µM; 24 h; human iPSC-derived NGN2 neurons (BR43)

SMILES	miR-132-3p level in NGN2-iNs
Cc1cccc(Cc2c[nH]cn2)c1C [Detomidine HCl]	0.486
CCCC[N+]1(C)[C@@H]2C[C@@H](OC(=O)[C@H](CO)c3ccccc3)C[C@H]1[C@@H]1O[C@@H]12 (stereo not given in full) [Butylscopolamine Bromide]	1.17
O=c1ccc2cc(O[C@@H]3O[C@H](CO)[C@@H](O)[C@H](O)[C@H]3O)c(O)cc2o1 [Esculin]	0.0805
CN1CCCCC1Cn1cc(C(=O)c2cc([N+](=O)[O-])ccc2I)c2ccccc21 (stereo not given)	0.631
CC(=O)O[C@H]1C[C@@H]2CC[C@@H]3[C@H](CC[C@@]4(C)[C@H]3C[C@H]([N+]3(C)CCCCC3)[C@@H]4OC(C)=O)[C@@]2(C)C[C@@H]1[N+]1(C)CCCCC1 [Pancuronium dibromide]	-0.672
O=C1C=CC[C@@H]2[C@H]3CCCN4CCC[C@@H](CN12)[C@@H]34 [Sophocarpine]	-0.361
O=C(NCC1CCOCC1)c1cnc(Nc2ccc(Cl)cc2Cl)nc1C(F)(F)F	-0.543
Cn1c(CCCC(=O)O)nc2cc(N(CCCl)CCCl)ccc21 [Bendamustine HCl]	-2.85
CC(C)(C)c1cc(C=C(C#N)C#N)cc(Br)c1O	0.294
CC(C)[C@]12O[C@H]1[C@@H]1O[C@]13[C@]1(O[C@H]1C[C@H]1C4=C(CC[C@@]13C)C(=O)OC4)[C@@H]2O [Triptolide (PG490)]	-0.37
CN(C)[C@@H]1C(=O)C(C(N)=O)=C(O)[C@@]2(O)C(=O)C3=C(O)c4c(O)cccc4[C@@](C)(O)[C@H]3C[C@@H]12 [Tetracycline HCl]	-0.758
CN1[C@@H]2C[C@@H](OC(=O)[C@H](CO)c3ccccc3)C[C@H]1[C@@H]1O[C@@H]12 [Scopolamine HBr]	-0.232
O=[N+]([O-])C=Cc1ccc2c(c1)OCO2 [MNS (3,4-Methylenedioxy-β-nitrostyrene)]	-0.328
C/C(=C\c1csc(C)n1)[C@@H]1C[C@@H]2O[C@@H]2CCC[C@H](C)[C@H](O)[C@@H](C)C(=O)C(C)(C)[C@@H](O)CC(=O)O1 [Epothilone A]	0.583
COc1ccc(N(C(=O)Oc2c(C)cccc2C)c2ccnc(Nc3ccc(N4CCN(C)CC4)cc3)n2)c(OC)c1	0.911
CN(C)CCc1ccc(O)cc1 [Hordenine]	-0.392
O=c1cccc2n1C[C@@H]1CNC[C@H]2C1 [Cytisine]	0.555
CN1CCc2cc3c(cc2C1C1OC(=O)c2c1ccc1c2OCO1)OCO3 (single isomer, unassigned; (+)) [(+)-Bicuculline]	-0.277
CC(O)(CS(=O)(=O)c1ccc(F)cc1)C(=O)Nc1ccc(C#N)c(C(F)(F)F)c1 (stereo not given) [Bicalutamide]	0.0368
CCOC(=O)c1cncn1[C@H](C)c1ccccc1 [Etomidate]	-0.166
O=C(O)c1nn(Cc2ccc(Cl)cc2Cl)c2ccccc12 [Lonidamine]	-0.437
C[C@]12CC[C@H](O)CC1=CC[C@@H]1[C@@H]2CC[C@]2(C)C(=O)CC[C@@H]12 [Dehydroepiandrosterone (DHEA)]	0.0408
O=[N+]([O-])c1ncc[nH]1 [Azomycin]	0.134
C=C1C[C@@H]2[C@H](CC[C@]3(C)C(=O)CC[C@@H]23)[C@@]2(C)C=CC(=O)C=C12 [Exemestane]	0.204

SMILES	miR-132-3p level in NGN2-iNs
CCCN1CCO[C@@H]2c3cc(O)ccc3OC[C@H]21	-0.253
CN(C)[C@@H]1C(=O)C(C(N)=O)=C(O)[C@@]2(O)C(=O)C3=C(O)c4c(O)cccc4[C@@](C)(O)[C@H]3[C@H](O)[C@@H]12 [Oxytetracycline (Terramycin)]	-0.354
CCc1cc2c(s1)-n1c(C)nnc1CN=C2c1ccccc1Cl [Etizolam]	1.33
Cc1sc2c(c1C)C(c1ccc(Cl)cc1)=N[C@@H](CC(=O)OC(C)(C)C)c1nnc(C)n1-2	-1.14
Cc1ccccc1-n1c(Cn2ncc3c(N)ncnc32)nc2cccc(C)c2c1=O	-0.964
COc1cc(OC)c(OC)cc1C=O [Asaraldehyde]	-0.767
Cc1sc2c(c1C)C(c1ccc(Cl)cc1)=NC(CC(N)=O)c1nnc(C)n1-2 (stereo not given)	-0.795
OC(c1ccccc1)(c1ccccc1)C1CCNCC1 [Azacyclonol]	1.38
CC(C)NCC(O)c1ccccc1Cl (stereo not given) [Clorprenaline HCl]	-2.54
CN1CCN(c2nc3ccccc3nc2Cl)CC1	-0.236
CN(C)C(=O)Oc1ccc[n+](C)c1 [Pyridostigmine Bromide]	-1.02
CCN(CC)C(=O)c1ccc(C2=CC3(CCNCC3)Oc3cccc(O)c32)cc1	0.253
CNCC(O)c1ccc(O)cc1 (stereo not given) [Synephrine]	-0.469
CNCC(O)c1ccc(O)cc1 (stereo not given) [Synephrine HCl]	-0.596
CCOc1ccccc1-n1c(C(C)N2CCN(C(=O)COc3ccc(Cl)cc3)CC2)nc2ccccc2c1=O (stereo not given) [Erastin]	-0.736
CN1[C@@H]2CC[C@H]1C[C@@H](OC(=O)C(CO)c1ccccc1)C2 (stereo not given in full) [Atropine sulfate monohydrate]	-0.548
C[C@]12CCC(=O)C(O)=C1CC[C@@H]1[C@@H]2CC[C@]2(C)C(=O)CC[C@@H]12 [Formestane]	-0.915
Cc1sc2c(c1C)C(c1ccc(Cl)cc1)=N[C@@H](CC(=O)Nc1ccc(O)cc1)c1nnc(C)n1-2	-0.728
CCC1(c2cccc(O)c2)CCCCN(C)C1 (stereo not given) [Meptazinol HCl]	-1.53
NCCc1c[nH]c2ccc(O)cc12 [Serotonin HCl]	-0.26
C/C=C(\C)C(=O)N[C@@H](c1ccccc1)[C@@H](O)C(=O)O[C@H]1C[C@@]2(O)[C@@H](OC(=O)c3ccccc3)[C@@H]3[C@]4(OC(C)=O)CO[C@@H]4C[C@H](O)[C@@]3(C)C(=O)[C@H](OC(C)=O)C(=C1C)C2(C)C [Cephalomannine]	-0.9
CCC(COC(=O)c1cc(OC)c(OC)c(OC)c1)(c1ccccc1)N(C)C (stereo not given) [Trimebutine]	-0.333
CC(=O)OC12COC1CC(O)C1(C)C(=O)C(O)C3=C(C)C(O)CC(O)(C(OC(=O)c4ccccc4)C21)C3(C)C (stereo not given) [10-Deacetylbaccatin-III]	-0.598
Cc1cc(C(=O)CN2CCCC2)c(C)n1-c1ccc(F)cc1	-0.159

Two entries drawn at random from the list so far:
SMILES	miR-132-3p level in NGN2-iNs
CC(C)(C)c1cc(C=C(C#N)C#N)cc(Br)c1O	0.294
CCN(CC)C(=O)c1ccc(C2=CC3(CCNCC3)Oc3cccc(O)c32)cc1	0.253

Next entries follow.

SMILES	miR-132-3p level in NGN2-iNs
C#C[C@]1(O)C=C[C@H]2[C@@H]3CCC4=CC(=O)CC[C@@H]4[C@H]3CC[C@@]21CC [Gestodene]	-0.0347
Cc1cccc([C@H](C)c2c[nH]cn2)c1C [Dexmedetomidine]	1.12
O=P1(NCCCl)OCCCN1CCCl (stereo not given) [Ifosfamide]	-0.455
O=S(=O)(F)Cc1ccccc1	-1.11
O=C(O[C@H]1C[N+]2(CCCOc3ccccc3)CCC1CC2)C(O)(c1cccs1)c1cccs1 [Aclidinium Bromide]	1.09
CC(C)(C)[C@]1(O)CC2OC(=O)CC23C(=O)OC2OC(=O)[C@H](O)C231 (stereo not given in full) [Bilobalide]	-0.91
CC[C@@H]1/C=C/C=C/C[C@H](C)[C@H](O)[C@](C)(O)C(=O)[C@H](C)[C@@H](O)[C@H](C)C(=O)[C@H](C)[C@@H](O)[C@H](C)/C=C/C(=O)O[C@H]2[C@@H](C)[C@@H](CC1)O[C@@]1(CC[C@@H](C)[C@@H](C[C@H](C)O)O1)[C@@H]2C [Oligomycin A]	0.918
O=C(Oc1ccc([N+](=O)[O-])cc1)N1CCC(C(O)(c2ccc3c(c2)OCO3)c2ccc3c(c2)OCO3)CC1	-0.622
Cc1cccc(C)c1NC1=NCCCS1 [Xylazine HCl]	-0.291
O=C1CCC[C@@H]2[C@H]3CCCN4CCC[C@@H](CN12)[C@@H]34 [(+)-Matrine]	1.11
CCC1(c2ccc(N)cc2)CCC(=O)NC1=O (stereo not given) [Aminoglutethimide]	2.42
CCN(C)C(=O)Oc1cccc([C@H](C)N(C)C)c1 [Rivastigmine Tartrate]	0.917
C[N+]1(C)[C@@H]2C[C@@H](OC(=O)[C@H](CO)c3ccccc3)C[C@H]1[C@@H]1O[C@@H]12 [Methscopolamine]	-0.428
C[C@]12CC[C@H](O)C[C@@H]1CC[C@@H]1[C@@H]2CC[C@]2(C)C(=O)CC[C@@H]12 [Epiandrosterone]	-0.538
NCC(O)c1ccc(O)cc1 (racemic) [(+,-)-Octopamine HCl]	-0.53
C[C@@H]1O[C@@H](O[C@H]2C[C@@H](O)[C@]3(CO)[C@H]4[C@H](O)C[C@]5(C)[C@@H](C6=CC(=O)OC6)CC[C@]5(O)[C@@H]4CC[C@]3(O)C2)[C@H](O)[C@H](O)[C@H]1O [Ouabain]	5.85
CC12NC(Cc3ccccc31)c1ccccc12 (single isomer, unassigned; (-)) [(-)-Dizocilpine (MK 801) Maleate]	-0.262
CC(=O)Nc1ccc(OC[C@](C)(O)C(=O)Nc2ccc([N+](=O)[O-])c(C(F)(F)F)c2)cc1 [Andarine]	0.219
C[C@](O)(COc1ccc(C#N)cc1)C(=O)Nc1ccc(C#N)c(C(F)(F)F)c1 [Ostarine (GTx-024, MK-2866 )]	-0.614
C[C@]12CC[C@H]3[C@@H](CC[C@@]45O[C@@H]4C(O)=C(C#N)C[C@]35C)[C@@H]1CC[C@@H]2O [Trilostane]	0.721
Cc1c(N)nc(C(CC(N)=O)NCC(N)C(N)=O)nc1C(=O)NC(C(=O)NC(C)C(O)C(C)C(=O)NC(C(=O)NCCc1nc(-c2nc(C(=O)NCCC[S+](C)C)cs2)cs1)C(C)O)C(O[C@@H]1O[C@@H](CO)[C@@H](O)[C@H](O)[C@@H]1O[C@H]1O[C@H](CO)[C@@H](O)[C@H](OC(N)=O)[C@@H]1O)c1cnc[nH]1 (stereo not given in full) [Bleomycin sulfate]	0.548
CN1C2CC(O)CC1C1OC12 (stereo not given) [Scopine]	-0.589

Some of the entries above, set out differently.
SMILES | miR-132-3p level in NGN2-iNs
O=C1C=CC[C@@H]2[C@H]3CCCN4CCC[C@@H](CN12)[C@@H]34 [Sophocarpine] | -0.361
O=C(NCC1CCOCC1)c1cnc(Nc2ccc(Cl)cc2Cl)nc1C(F)(F)F | -0.543
Cn1c(CCCC(=O)O)nc2cc(N(CCCl)CCCl)ccc21 [Bendamustine HCl] | -2.85

— the supplement of paper PMC10663445
